Experimental data published in patent publication US20260104399A1, “A PROCESS FOR ASSESSING BIODEGRADABILITY OF COMPLEX ORGANIC MIXTURES” (ABOCA S.P.A. SOCIETÀ AGRICOLA, priority 2022, published 2026).

Assays:
[1] = tested on: microfauna of the inoculum (activated sludge and river water); assay: Targeted UHPLC-qToF qualitative analysis of RBT samples of mixtures A and B; set-up: species or system Aspidisca cicada, Zoothamnium, Rotiferi, Euglyphia
[2] = tested on: microfauna of the inoculum (activated sludge and river water); assay: Semiquantitative UHPLC-qToF evaluation (Relative Ratio, percentage of reduction) of residual main components after RBT; set-up: species or system Aspidisca cicada, Zoothamnium, Rotiferi, Euglyphia; settings: for reduction percentage: T28 vs T0; for RR at T28 (Relative Ratio): after 28 days RBT
[3] = component in Mixture A at 50 mg/L
[4] = component in Mixture A at 100 mg/L
[5] = component in Mixture A at 1000 mg/L

## OC[C@H]1O[C@H](O[C@]2(CCl)O[C@H](CCl)[C@@H](O)[C@@H]2O)[C@H](O)[C@@H](O)[C@H]1Cl [Sucralose (1), sucralose]
[1]; Mixture A, after 28 days RBT
  presence after 28 days (target analysis, m/z 419.0038): detected without any significant difference in concentration
[2]; Mixture A, all the samples (50, 100, 1000 mg/L), 28 days
  degradation of the component (in words): fully non-degradable
[2]; [3]
  reduction percentage: No % reduction
  RR at T28 (Relative Ratio): RR at T28 0.052
[2]; component in Mixture A at 50 mg/L, start of RBT
  RR at T0 (Relative Ratio, area counts of compound / internal standard): RR at T0 0.049
[2]; [4]
  reduction percentage: 0.56% reduction
  RR at T28 (Relative Ratio): RR at T28 0.09
[2]; component in Mixture A at 100 mg/L, start of RBT
  RR at T0 (Relative Ratio): RR at T0 0.100
[2]; [5]
  reduction percentage: No % reduction
  RR at T28 (Relative Ratio): RR at T28 0.483
[2]; component in Mixture A at 1000 mg/L, start of RBT
  RR at T0 (Relative Ratio): RR at T0 0.468

## Sucrose [Sucrose (4)]
[1]; Mixture B, target study
  presence of compound or direct derivatives after 28 days of RBT: not possible to detect
